No constants are given. Whether binding was seen depends on the method and setting. Binding seen in cells or lysates may run through a third protein. Some entries that bind do so weakly or less than the wild type.
Experiments:
[1] = target: V5-tagged RRN3 (stably expressed in SK-OV-3 cells) (human) (UniProt Q9NYV6); test: co-IP; anti-V5 immunoprecipitation from SK-OV-3 cells overexpressing V5-tagged RRN3; western blot for PABPC1
[2] = target: PABPC1 (endogenous, SK-OV-3 cells) (human (endogenous in SK-OV-3)) (UniProt P11940); test: co-IP; SK-OV-3 cells treated with Rapamycin (500 nM, 24 h) or DMSO control; immunoprecipitation with anti-PABPC1 antibody
[3] = target: Flag-tagged PABPC1 (HEK 293T) (UniProt P11940); test: co-IP; HEK 293T transiently transfected with V5-tagged RRN3 (WT or S199D) together with Flag-tagged PABPC1; immunoprecipitation with anti-Flag antibody

Protein sequences, listed by entry. Tags and fused reporters are not part of them. Lines headed by an entry give the natural chain unless they say otherwise; changes in a name come on top.
UniProt Q9NYV6: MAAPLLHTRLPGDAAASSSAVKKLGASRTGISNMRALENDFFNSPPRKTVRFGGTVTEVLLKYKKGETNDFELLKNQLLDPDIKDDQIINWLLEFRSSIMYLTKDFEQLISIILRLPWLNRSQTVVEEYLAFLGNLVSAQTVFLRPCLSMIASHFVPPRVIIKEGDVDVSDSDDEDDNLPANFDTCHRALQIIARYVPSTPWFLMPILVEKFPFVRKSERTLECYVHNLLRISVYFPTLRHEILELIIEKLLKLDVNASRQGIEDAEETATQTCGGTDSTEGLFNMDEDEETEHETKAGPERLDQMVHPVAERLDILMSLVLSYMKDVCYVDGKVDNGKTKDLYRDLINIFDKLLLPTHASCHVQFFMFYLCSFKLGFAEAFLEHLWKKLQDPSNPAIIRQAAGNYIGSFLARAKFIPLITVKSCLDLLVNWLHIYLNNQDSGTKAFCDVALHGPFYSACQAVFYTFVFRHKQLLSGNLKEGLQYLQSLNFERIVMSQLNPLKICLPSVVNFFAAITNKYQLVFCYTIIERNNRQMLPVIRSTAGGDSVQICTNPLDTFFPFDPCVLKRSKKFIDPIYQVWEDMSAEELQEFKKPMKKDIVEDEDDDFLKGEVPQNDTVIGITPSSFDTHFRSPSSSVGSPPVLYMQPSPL
UniProt P11940: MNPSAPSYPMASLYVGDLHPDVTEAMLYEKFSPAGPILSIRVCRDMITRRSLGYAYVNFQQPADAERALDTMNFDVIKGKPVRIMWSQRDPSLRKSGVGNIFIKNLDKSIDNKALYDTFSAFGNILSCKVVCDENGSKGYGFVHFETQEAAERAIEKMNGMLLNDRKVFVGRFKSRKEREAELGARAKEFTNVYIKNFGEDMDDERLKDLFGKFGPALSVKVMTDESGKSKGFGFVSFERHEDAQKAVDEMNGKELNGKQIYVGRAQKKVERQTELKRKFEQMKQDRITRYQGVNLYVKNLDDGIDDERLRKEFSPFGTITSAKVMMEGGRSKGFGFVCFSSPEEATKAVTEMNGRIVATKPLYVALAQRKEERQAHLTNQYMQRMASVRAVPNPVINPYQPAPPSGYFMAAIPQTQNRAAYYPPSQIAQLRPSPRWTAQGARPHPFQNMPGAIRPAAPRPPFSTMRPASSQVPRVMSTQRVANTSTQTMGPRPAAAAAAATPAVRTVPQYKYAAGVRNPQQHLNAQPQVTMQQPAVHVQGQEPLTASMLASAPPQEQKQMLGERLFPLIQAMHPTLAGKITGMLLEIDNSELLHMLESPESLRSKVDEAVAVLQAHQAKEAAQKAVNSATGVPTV

Substance: PABPC1 (endogenous, SK-OV-3 cells) (from UniProt P11940 1-636)
- binding [1]: binds

Substance: RRN3 (endogenous, SK-OV-3 cells) (from UniProt Q9NYV6 1-651)
- binding [2]: binds

Substance: V5-tagged S199D-mutated RRN3 (HEK 293T) (from UniProt Q9NYV6 1-651)
- binding [3]: binds

Substance: V5-tagged wild type (WT) RRN3 (HEK 293T) (from UniProt Q9NYV6 1-651)
- binding [3]: binds
